Test results published in PubChem BioAssay AID256 (DTP/NCI, 2004).
The list is a part of this screen's results and no random one: it gathers tests that were run many times, whatever their T/C, doses with no T/C, and many T/C values between a quarter and a half above the control. Other doses and runs of a compound stand elsewhere. T/C: endpoint of the treated group in % of that of the vehicle group. Some entries give survivors of the animals treated and no T/C: the source files T/C as zero there, which appears to mark a toxic dose or a test without result, not a measured value. Some survivor counts are full or nearly so, which does not show that the dose was tolerated: survival well below the control is almost never listed, so the zero probably covers shortened survival too. Counts of survivors are from the toxicity check (mostly the fifth day) where no day follows; animals may have died later. Schedule codes are those of the source, taken here to give the interval after Q, in days (D) or hours (H), and the number of doses after X. Some entries were tested several times; their values stand side by side, smallest first. Where survival is the endpoint, the PubChem record calls one and a half times the control and up active, and a quarter to a half above the control has no call in these data; cut-offs in other NCI protocols can differ.

Tested on: CD2F1 mice, L1210 leukemia ip, survival T/C
Test: NCI In Vivo Anticancer Drug Screen. Data for tumor model L1210 Leukemia (intraperitoneal) in CD2F1 (CDF1) mice
Conditions: higher T/C = longer survival
Procedure, shortened: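 Ratio T/C, where T is the treated-group value and C the vehicle-dosed control value, from mice implanted with a transplantable tumor.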

[1] = T/C endpoint: mean survival time, dose: 100.0 mg/kg/injection, schedule: Q04DX003 (ip), vehicle: saline with Tween-80
[2] = T/C endpoint: mean survival time, dose: 200.0 mg/kg/injection, schedule: Q04DX003 (ip), vehicle: saline with Tween-80
[3] = T/C endpoint: mean survival time, dose: 400.0 mg/kg/injection, schedule: Q04DX003 (ip), vehicle: saline with Tween-80

For `C[As](C)SCC1OC(n2ccc(=O)[nH]c2=O)CC1O` (stereo not given), the survivor count (T/C endpoint: median survival time, dose: 200.0 mg/kg/injection, schedule: Q01DX005 (ip), vehicle: distilled water + Tween-80) was 0 of 6.

For `CC(=O)CC(=O)C(F)(F)F.CC(=O)CC(=O)C(F)(F)F.[O]=[V]`, the survivor count (T/C endpoint: mean survival time, dose: 30.0 mg/kg/injection, schedule: Q01DX009 (ip), vehicle: saline with Tween-80) was 5 of 6.

With `O=C(O)c1cccnc1Cl` the survivor count (T/C endpoint: mean survival time, dose: 300.0 mg/kg/injection, schedule: Q01DX009 (ip), vehicle: Klucel (hydroxypropylcellulose) (HPC)) was 4 of 6.

For `C[C@@]1(CO)[C@H](O)CC[C@@]2(C)[C@H]1CC[C@H]1C[C@@H]3C[C@@]12CC[C@@]3(O)COC(=O)CN`, the T/C (T/C endpoint: median survival time, dose: 40.0 mg/kg/injection, schedule: Q03HX027 (ip), vehicle: saline + alcohol) was 126 % of control, the T/C (T/C endpoint: median survival time, dose: 60.0 mg/kg/injection, schedule: Q01DX009 (ip), vehicle: saline) was 139 % of control and the survivor count (T/C endpoint: median survival time, dose: 80.0 mg/kg/injection, schedule: Q03HX027 (ip), vehicle: saline + alcohol) was 10 of 10. For the same compound, the T/C (T/C endpoint: median survival time, dose: 100.0 mg/kg/injection, schedule: Q01DX005 (ip), vehicle: saline) was 126 % of control, the T/C (T/C endpoint: median survival time, dose: 100.0 mg/kg/injection, schedule: Q01DX009 (ip), vehicle: saline + alcohol) was 127 % of control and the T/C (T/C endpoint: median survival time, dose: 100.0 mg/kg/injection, schedule: Q01DX009 (ip), vehicle: saline) was 140 % of control. For the same compound, the T/C (T/C endpoint: median survival time, dose: 166.6 mg/kg/injection, schedule: Q01DX005 (ip), vehicle: saline) was 134 % of control, the survivor count (T/C endpoint: median survival time, dose: 166.67 mg/kg/injection, schedule: Q01DX009 (ip), vehicle: saline) was 3 of 6 and the survivor count (T/C endpoint: median survival time, dose: 200.0 mg/kg/injection, schedule: Q01DX005 (ip), vehicle: saline) was 2 of 6. For the same compound, the survivor count (T/C endpoint: median survival time, dose: 277.7 mg/kg/injection, schedule: Q01DX005 (ip), vehicle: saline) was 0 of 6, the survivor count (T/C endpoint: median survival time, dose: 277.7 mg/kg/injection, schedule: Q01DX009 (ip), vehicle: saline) was 0 of 6 and the survivor count (T/C endpoint: median survival time, dose: 277.78 mg/kg/injection, schedule: Q01DX009 (ip), vehicle: saline) was 1 of 6. For the same compound, the survivor count (T/C endpoint: median survival time, dose: 400.0 mg/kg/injection, schedule: Q01DX005 (ip), vehicle: saline) was 0 of 6 and the survivor count (T/C endpoint: median survival time, dose: 462.97 mg/kg/injection, schedule: Q01DX009 (ip), vehicle: saline) was 0 of 6.

In the case of `CCN(CC)CCCC(C)N` (stereo not given), the survivor count (T/C endpoint: mean survival time, dose: 100.0 mg/kg/injection, schedule: Q04DX003 (ip), vehicle: saline) is reported as 1 of 6 and the survivor count (T/C endpoint: mean survival time, dose: 200.0 mg/kg/injection, schedule: Q04DX003 (ip), vehicle: saline) is reported as 0 of 6.

In the case of `CC(=O)NCC(C)CCC1OC2CC3C4CC=C5CC(OC(C)=O)CCC5(C)C4CCC3(C)C2C1C` (stereo not given), the survivor count [1] is reported as 5 of 6, the survivor count [2] is reported as 0 of 6 and the survivor count [3] is reported as 0 of 6.

With `O=C(O)c1c[nH]c2c(Cl)cccc2c1=O` the survivor count (T/C endpoint: mean survival time, dose: 400.0 mg/kg/injection, schedule: Q01DX001 (ip), vehicle: saline) was 0 of 6.

`NS(=O)(=O)O` was tested, and the survivor count [1] was 3 of 6, the survivor count [2] was 1 of 6 and the survivor count [3] was 0 of 6.

`c1ccc(OCC2CO2)c(OCC2CO2)c1` (stereo not given) was tested, and the T/C (T/C endpoint: median survival time, dose: 50.0 mg/kg/injection, schedule: Q01DX009 (ip), vehicle: saline with Tween-80) was 127 % of control, the T/C (T/C endpoint: median survival time, dose: 100.0 mg/kg/injection, schedule: Q01DX009 (ip), vehicle: saline with Tween-80, evaluated on day 20) was 127 % of control and the T/C (T/C endpoint: median survival time, dose: 100.0 mg/kg/injection, schedule: Q01DX009 (ip), vehicle: saline with Tween-80, evaluated on day 30) was 128 and 134 % of control. For the same compound, the T/C (T/C endpoint: median survival time, dose: 200.0 mg/kg/injection, schedule: Q01DX009 (ip), vehicle: saline with Tween-80) was 143 % of control and the survivor count (T/C endpoint: median survival time, dose: 400.0 mg/kg/injection, schedule: Q01DX009 (ip), vehicle: saline with Tween-80) was 2 of 6 and 3 of 6.

For `CS(=O)(=O)OCCN(CCOS(C)(=O)=O)c1cccc([N+](=O)[O-])c1`, the T/C (T/C endpoint: mean survival time, dose: 30.0 mg/kg/injection, schedule: Q01DX010 (ip), vehicle: saline) was 131 % of control, the T/C (T/C endpoint: mean survival time, dose: 100.0 mg/kg/injection, schedule: Q01DX010 (ip), vehicle: saline) was 148 % of control and the T/C (T/C endpoint: mean survival time, dose: 512.0 mg/kg/injection, schedule: Q01DX001 (ip), vehicle: saline) was 136 % of control.

For `O=C1C=C(c2ccccc2)OC(=O)C1C(=O)c1ccccc1` (stereo not given), the survivor count (T/C endpoint: mean survival time, dose: 400.0 mg/kg/injection, schedule: Q01DX001 (ip), vehicle: saline with Tween-80) was 0 of 3.
